Results are given in words; binding and its absence hold for the method and conditions named. Binding seen in cells or lysates may run through a third protein. Some binding calls cover weakened binding; strength is not graded here. Sequences can lack the tags named with a protein.

Sequences of proteins named here, by UniProt entry; tags and fusion partners are left off.
UniProt P70338: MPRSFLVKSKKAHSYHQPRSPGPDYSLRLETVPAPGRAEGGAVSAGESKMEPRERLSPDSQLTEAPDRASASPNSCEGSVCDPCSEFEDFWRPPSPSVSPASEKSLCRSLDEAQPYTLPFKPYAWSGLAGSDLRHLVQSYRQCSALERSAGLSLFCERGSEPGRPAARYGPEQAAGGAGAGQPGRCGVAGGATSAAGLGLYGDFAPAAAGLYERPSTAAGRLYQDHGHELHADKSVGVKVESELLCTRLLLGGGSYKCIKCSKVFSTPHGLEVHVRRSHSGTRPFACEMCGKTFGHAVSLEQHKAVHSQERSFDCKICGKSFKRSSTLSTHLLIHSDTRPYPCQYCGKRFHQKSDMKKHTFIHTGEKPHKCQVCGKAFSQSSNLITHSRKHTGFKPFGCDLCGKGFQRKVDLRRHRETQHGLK

The target in this assay is GST-Gfi1 (mouse) (UniProt P70338). Kind of assay: pull-down; GST-Gfi1 held on glutathione sepharose beads; in vitro translated myc-Atoh1 extract incubated 2 h at 4°C; both treated with micrococcal nuclease; lysis and wash buffers with 5 mM β-mercaptoethanol and 50 μM ZnSO4; Western blot with anti-myc antibody; only the target purified.

B1: Myc-tagged Atoh1 (protein, UniProt P48985 1-351)
chain: MSRLLHAEEWAEVKELGDHHRHPQPHHVPPLTPQPPATLQARDLPVYPAELSLLDSTDPRAWLTPTLQGLCTARAAQYLLHSPELGASEAAAPRDEADSQGELVRRSGCGGLSKSPGPVKVREQLCKLKGGVVVDELGCSRQRAPSSKQVNGVQKQRRLAANARERRRMHGLNHAFDQLRNVIPSFNNDKKLSKYETLQMAQIYINALSELLQTPNVGEQPPPPTASCKNDHHHLRTASSYEGGAGASAVAGAQPAPGGGPRPTPPGPCRTRFSGPASSGGYSVQLDALHFPAFEDRALTAMMAQKDLSPSLPGGILQPVQEDNSKTSPRSHRSDGEFSPHSHYSDSDEAS
Consider B1, for which the binding entry was “binds”.

Values taken from PMC9676683.
